Data taken from ChEMBL document CHEMBL3988442, “University of Dundee, Small-Polar-MMV Screening Library” (2021).

The chains behind the UniProt entries cited, without tags or fusion partners. Residues count along the entry.
UniProt Q4DA54, 1-478: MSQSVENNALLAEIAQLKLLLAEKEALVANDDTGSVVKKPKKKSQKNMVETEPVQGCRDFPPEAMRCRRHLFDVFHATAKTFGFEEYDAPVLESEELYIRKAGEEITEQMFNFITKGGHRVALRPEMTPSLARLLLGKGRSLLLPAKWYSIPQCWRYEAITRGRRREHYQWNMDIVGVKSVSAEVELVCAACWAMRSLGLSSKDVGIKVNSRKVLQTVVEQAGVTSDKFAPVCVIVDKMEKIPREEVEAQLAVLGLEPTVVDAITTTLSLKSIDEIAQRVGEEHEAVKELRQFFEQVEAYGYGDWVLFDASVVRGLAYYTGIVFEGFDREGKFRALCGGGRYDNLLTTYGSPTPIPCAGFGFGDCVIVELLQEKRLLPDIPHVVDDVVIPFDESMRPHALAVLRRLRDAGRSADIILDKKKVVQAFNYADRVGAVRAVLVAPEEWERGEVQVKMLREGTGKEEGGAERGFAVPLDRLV

Results are given as percent effect.
The record does not define 0% and 100%; most values in the screen are far below 50% and negative numbers occur (in some assays of this library far below -100).
This is an unselected part of the compounds tested.

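Histidine-tRNA ligase, Trypanosoma cruzi CL Brener (UniProt Q4DA54). Enzyme assay of histidyl-tRNA synthetase; the read-out is not stated. Tested at 30 µM. Direction is inferred from retests: higher values go with stronger inhibition. Of about 69,000 compounds tested this way, about 31 (0.045%) reached 50% or more in at least one test.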

Compound	effect
CCS(=O)(=O)N1CC[C@H](OC)[C@@H]1Cc1ccncc1	6.077
O=S(=O)(c1ccccc1)N1CCOC(Cn2ccnc2)C1 (stereo not shown)	10.34
Cc1ccc(C2COCCN2C(=O)c2ccc(N(C)C)cc2)o1 (stereo not shown)	0.4149
O=C(N1CCN(CCO)CC1)C1(O)Cc2ccccc2C1	2.105
O=C(CC1CC1)N1CCC2(COCc3cnc(-c4cccnc4)nc32)C1 (stereo not shown)	4.233
COc1cc(CCC(=O)N2CCC(c3cc4ncc(C)nc4[nH]3)C2)on1 (stereo not shown)	1.695
CC(NC(=O)COc1cccc[n+]1[O-])C1CC1 (stereo not shown)	5.946
Cc1cc2c(cc1CN1CCCCC1CCn1ccnc1C)OCO2 (stereo not shown)	3.352
CCN(CC)CC(=O)N1CCCC1Cn1cccn1 (stereo not shown)	1.143
CC[C@@H](C)[C@H](NC(=O)CCn1cc(C(C)=O)c2ccccc21)C(=O)O	0
O=C(C1CC1)N1CCN(C(=O)CSc2ccccn2)[C@H]2CS(=O)(=O)C[C@H]21	15.29
Cc1cc(C)c(CNC(=O)NC2CCOCC2)c(=O)[nH]1	13.33
CC(C)(C)OC(=O)N[C@H]1CCN(C(=O)c2cc(Cl)c[nH]2)C1	5.882
Cc1nn(Cc2ccccc2)c(C)c1CNC1CCc2ncnn2C1 (stereo not shown)	6.553
Cc1nc(C(C)(C)NC(=O)Nc2ccccc2)no1	1.653
COc1ccccc1CNC(Cc1cccs1)c1nc(C)c(C)s1 (stereo not shown)	1.493
N[C@H]1CC[C@@H](NC(=O)c2ccc3nc(-c4ccc(F)cc4)cn3c2)CC1	7.738
COc1ccccc1C1(CNc2snc(Cl)c2C#N)CCOCC1	1.724
CN(C)Cc1ccc(C2CCCCN2C(=O)c2cccc(CO)n2)cc1 (stereo not shown)	-2.479
CCC(=O)N1CCC2(CC1)CC(Oc1ccccc1)CO2 (stereo not shown)	3.483
O=C(NC[C@H]1CC[C@H](c2nnc(-c3cccnc3)o2)CC1)C1CC1	-4.887
Cc1cc(C)n(CCC(=O)N2CCC(c3nc(C)no3)CC2)n1	0
Cc1ccc(-c2nc(CN3CCCC(C(=O)N(C)C)C3)cs2)o1 (stereo not shown)	9.577
CC1CCN(C(=O)c2cnc3cc(C(=O)N(C)C)n(C)c3c2)CC1	3.409
O=S(=O)(Cc1ccccc1)N1CCCn2cnc(CN3CCCC3)c2C1	7.027
CCc1cccc2cc(CNCCOC)c(=O)[nH]c12	5.747
NC(=O)COc1ccc(CN2CCNC(C(=O)NC3CC3)C2)cc1Cl (stereo not shown)	-2.899
CC(CNS(=O)(=O)CCCC#N)c1ccsc1 (stereo not shown)	10.5
Cc1ccc(C(=O)N2CCOCC2)cc1NCc1ccsc1	8.434
O=C(NCCc1ccccn1)[C@@]12CCO[C@@H]1CCN(CC1CC1)C2	4.854
CC(C)(C)NC(=O)CN1CCN(C(=O)Nc2ccc(F)cc2F)CC1	4.132
CCc1ncc(C(=O)N2C[C@@H](C)O[C@@H](C)C2)cn1	7.182
O=S(=O)(Cc1ccccc1)NCC1CCN(c2cnccn2)CC1	9.783
N#CC1(C(=O)N2CCCN(c3nccs3)CC2)CCCC1	5.917
N#Cc1ccc(OC[C@]23COC[C@H]2CN(Cc2ccccn2)C3)nc1	-11.4
Cn1nc(C2CCCN(Cc3cccc(F)c3)C2)c2nccnc21 (stereo not shown)	3.784
CC1CCCN(Cc2c(C3CC3)[nH]c3ncccc23)C1 (stereo not shown)	7.447
CCC(C(=O)N(Cc1ccccn1)C1CCCCC1)n1cccn1 (stereo not shown)	17.58
Cc1nc(COC[C@@H]2CCC[C@@]23CNCCO3)cs1	3.825
Cc1ccc(CNC(=O)NC(C)CCS(C)(=O)=O)cc1F (stereo not shown)	5.806
Cc1ncccc1NC(=O)[C@@H]1CCO[C@@H]2CCN(c3ccncn3)C[C@H]21	5.028
Cc1cnc(NC2CCN(CC(=O)Nc3ccccc3)CC2)nc1C	2.89
O=c1[nH]cccc1-c1nccc(C2(c3ccccc3Cl)CCNCC2)n1	1.345
CC(C)(O)CCc1cccc(C(=O)NCCC2CCOC2)c1 (stereo not shown)	6.061
COc1c(C2CCCN2C(=O)c2ccc(N(C)C)nn2)c(C)nn1C (stereo not shown)	0.8746
OC(COCc1ccco1)CN1CCC(Cn2cccn2)CC1 (stereo not shown)	3.365
O=C(O)C1(Cc2ccccc2F)CCCN(c2ncnc3[nH]ccc23)C1 (stereo not shown)	5.579
COc1ccc(F)cc1C(=O)Nc1nnc(C)s1	4.651
O=S(=O)(c1cccnc1)N1CCCC1COc1ccccc1 (stereo not shown)	3.03
Nc1nnc(SCC(=O)NCC(O)c2ccccc2)s1 (stereo not shown)	-0.6494
Cc1cc(C)c2nc(C)c(C(=O)N3CCC(CCN(C)C)CC3)cc2c1	4.981
Cc1nc(C)n(CC2CCCN2CC(=O)Nc2ccnn2C(C)C)n1 (stereo not shown)	-0.7576
CC(C)N(C)CC(=O)Nc1ccc(-n2ccc(C(N)=O)n2)cc1	3.012
COc1cccc(OCCNC(=O)CN2CCN(C)CC2C)c1 (stereo not shown)	1.149
COCCn1c(-c2cccc(OC)c2)cnc1NC(=O)NCCC(C)C	9.756
Cc1cccc2[nH]c(COCC(=O)N3CCCn4cncc4C3)nc12	8.8
CCCN1CC(NC(=O)Nc2nc(C)n(C(C)C)n2)CC1=O (stereo not shown)	2.128
COc1ccc(NC(C)C(=O)N2CCN(c3ccccc3)CC2)cn1 (stereo not shown)	6.897
CCn1cc(NC(=O)NCCc2ccc3c(c2)OCO3)cn1	1.994
O=C(C1CC1)N1CC2(CCNCC2)c2cc(F)ccc21	11.65
Cn1ccnc1CN1CCc2ncnc(N3CCCC(C#N)C3)c2CC1 (stereo not shown)	4
CCN(C)C[C@@H]1CN(Cc2cccc(O)c2)C[C@@H]1CO	4.831
CCOc1cc(CNCCCn2ccnc2)cc(Cl)c1OC	4.545
CCn1cc(CN2CCCN(C(=O)Cc3cccs3)CC2)cn1	1.504
CC(C)Cc1nc(CS(C)(=O)=O)n(-c2ccccn2)n1	7.006
COc1cccc(CNCc2ccc(F)c(Cl)c2)c1O	7.772
Cc1csc(CCCNC(C)CC(=O)Nc2cccc(C)c2C)n1 (stereo not shown)	0
O=C(NCc1cccnc1)c1ccc2nccn2c1	6.509
Cc1cc(CN2CCOC(CN(C)C)C2)no1 (stereo not shown)	3.448
CCn1ncc(Nc2[nH]cnc3nc(C)nc2-3)c1C	8.247
Cc1nn(CC(=O)N2CCN(c3ccncc3)CC2)c(C)c1Cl	1.087
CN1CCC(c2cncc(Cl)n2)CC1	10.85
OCCN1CCN(CC(O)c2ccc(OC(F)(F)F)cc2)CC1 (stereo not shown)	5.523
CN(CCc1ccncc1)C(=O)C1CSCN1C(=O)CC(C)(C)C (stereo not shown)	1.01
c1ccc(-c2cc(CN3CCCCCC3c3ccco3)on2)nc1 (stereo not shown)	8.929
CC(NC(=O)C1CCN(C(=O)C2CC2)CC1)c1nncn1C(C)C (stereo not shown)	4.712
COc1ccc(NC(=O)CCC2CCCN(S(=O)(=O)C3CC3)C2)c(C)c1 (stereo not shown)	11.36
COCCN1CC(Nc2nc(C3CCCC3)nc3c2cnn3C)CC1=O (stereo not shown)	-2.632
Cc1cnn(CC(C)NCc2cc(=O)n3cc(C)ccc3n2)c1 (stereo not shown)	6.863
N#Cc1cccnc1OC1CCN(C(=O)c2cc(C3CC3)on2)CC1	-1.031
N#Cc1cccnc1N1CCC(c2nc(C(F)(F)F)c[nH]2)CC1	14.29
CS(=O)(=O)Nc1ccn(Cc2cccc(F)c2)n1	5.217
O=C(CCc1nc2cc(Br)cnc2[nH]1)NCc1cccnc1	4.094
CCN(CC)C(=O)c1ccn(COc2c(Cl)cccc2Cl)n1	0
O=c1cccnn1CC1CN(c2ncc(F)cn2)Cc2nccn2C1 (stereo not shown)	6.667

The last 9 entries again:

Result for COc1ccc(NC(=O)CCC2CCCN(S(=O)(=O)C3CC3)C2)c(C)c1 (stereo not shown) was 11.36%.
Result for COCCN1CC(Nc2nc(C3CCCC3)nc3c2cnn3C)CC1=O (stereo not shown) was -2.632%.
Result for Cc1cnn(CC(C)NCc2cc(=O)n3cc(C)ccc3n2)c1 (stereo not shown) was 6.863%.
Result for N#Cc1cccnc1OC1CCN(C(=O)c2cc(C3CC3)on2)CC1 was -1.031%.
Result for N#Cc1cccnc1N1CCC(c2nc(C(F)(F)F)c[nH]2)CC1 was 14.29%.
Result for CS(=O)(=O)Nc1ccn(Cc2cccc(F)c2)n1 was 5.217%.
Result for O=C(CCc1nc2cc(Br)cnc2[nH]1)NCc1cccnc1 was 4.094%.
Result for CCN(CC)C(=O)c1ccn(COc2c(Cl)cccc2Cl)n1 was 0%.
Result for O=c1cccnn1CC1CN(c2ncc(F)cn2)Cc2nccn2C1 (stereo not shown) was 6.667%.